{"source": "PubChem BioAssay AID248", "about": "(DTP/NCI, 2004)", "tested_on": "L1210 leukemia ip in BDF1 mice, survival T/C", "experiment": "NCI In Vivo Anticancer Drug Screen. Data for tumor model L1210 Leukemia (intraperitoneal) in B6D2F1 (BDF1) mice", "details": "T/C endpoint: mean survival time, higher T/C = longer survival", "key": {"[1]": {"details": "dose: 400.0 mg/kg/injection, schedule: Q01DX009 (ip), vehicle: Klucel (hydroxypropylcellulose) (HPC)"}, "[2]": {"details": "dose: 400.0 mg/kg/injection, schedule: Q01DX001 (ip), vehicle: saline"}, "[3]": {"details": "dose: 400.0 mg/kg/injection, schedule: Q01DX009 (ip), vehicle: saline with Tween-80"}, "[4]": {"details": "dose: 400.0 mg/kg/injection, schedule: Q01DX001 (ip), vehicle: carboxymethylcellulose (CMC)"}, "[5]": {"details": "dose: 100.0 mg/kg/injection, schedule: Q04DX003 (ip), vehicle: Klucel (hydroxypropylcellulose) (HPC)"}}, "note": "The list is a part of this screen's results and no random one: it gathers tests that were run many times, whatever their T/C, doses with no T/C, and many T/C values between a quarter and a half above the control. Further doses and runs are listed elsewhere. T/C: endpoint of the treated group in % of that of the vehicle group. Some entries give survivors of the animals treated and no T/C: the source holds a T/C of zero for them, seemingly a mark for toxic or unscored doses. Some doses without a T/C left all or most animals alive at the check, yet need not have been tolerated: survival well below the control is almost never listed, so the zero probably covers shortened survival too. Counts of survivors are from the toxicity check (mostly the fifth day) where no day follows; animals may have died later. Schedule codes are those of the source, taken here to give the interval after Q, in days (D) or hours (H), and the number of doses after X. Some schedules carry Z or #; the key to these is not given. Counts like (3×) stand for listed records that agree. Some entries were tested several times; the values are given in rising order. For survival time, this PubChem deposit counts one and a half times the control or more as active, and values a quarter to a half above the control carry no call in these data; other NCI protocols may use other cut-offs. Some T/C values are followed by the survivors on the day toxicity was checked, most often the fifth; where none is given, no animal had died by that day."}
{"smiles": "CCOc1cc(N)ccc1C", "values": [{"measurement": "survivor count", "setting": "[1]", "value": "0 of 6"}]}
{"smiles": "c1ccc(CCCn2cnc3cnccc32)cc1", "values": [{"measurement": "survivor count", "setting": "dose: 80.0 mg/kg/injection, schedule: Q01DX001 (ip), vehicle: saline", "value": "0 of 4"}, {"measurement": "survivor count", "setting": "dose: 200.0 mg/kg/injection, schedule: Q01DX001 (ip), vehicle: saline", "value": "0 of 4"}, {"measurement": "survivor count", "setting": "[2]", "value": "0 of 4"}]}
{"smiles": "CCCCN(CCCC)C(=O)C1C=C2c3cccc4[nH]cc(c34)CC2N(C)C1", "note": "(centres undefined)", "values": [{"measurement": "survivor count", "setting": "dose: 400.0 mg/kg/injection, schedule: Q01DX009 (ip), vehicle: water", "value": "0 of 6"}]}
{"smiles": "O=[N+]([O-])c1cccc2cn[nH]c12", "values": [{"measurement": "survivor count", "setting": "dose: 200.0 mg/kg/injection, schedule: Q04DX002 (ip), vehicle: saline with Tween-80", "value": "1 of 3"}, {"measurement": "survivor count", "setting": "dose: 400.0 mg/kg/injection, schedule: Q04DX002 (ip), vehicle: saline with Tween-80", "value": "0 of 3"}]}
{"smiles": "Cc1cccc(Nc2cc(N)nc(N)n2)c1", "values": [{"measurement": "survivor count", "setting": "dose: 25.0 mg/kg/injection, schedule: Q01DX Z (ip), vehicle: methylcellulose (MC)", "value": "5 of 6"}, {"measurement": "survivor count", "setting": "dose: 100.0 mg/kg/injection, schedule: Q01DX Z (ip), vehicle: methylcellulose (MC)", "value": "0 of 6"}, {"measurement": "survivor count", "setting": "dose: 200.0 mg/kg/injection, schedule: Q01DX Z (ip), vehicle: methylcellulose (MC)", "value": "0 of 6"}]}
{"smiles": "COC(=O)CC(=O)c1cc(C(C)(C)C)cc(C(C)(C)C)c1", "values": [{"measurement": "survivor count", "setting": "dose: 400.0 mg/kg/injection, schedule: Q04DX003 (ip), vehicle: DMSO", "value": "5 of 6"}]}
{"smiles": "Oc1ccc2ccccc2c1Cc1cccc2ccccc12", "values": [{"measurement": "survivor count", "setting": "[3]", "value": "2 of 6"}]}
{"smiles": "O=C(Nc1ccccc1C(F)(F)F)Oc1ccc(Cl)cc1Cl", "values": [{"measurement": "survivor count", "setting": "[3]", "value": "0 of 6"}]}
{"smiles": "Nc1nc(N)c2cc(N(CCO)CCO)ccc2n1", "values": [{"measurement": "survivor count", "setting": "[2]", "value": "2 of 4"}]}
{"smiles": "C=CCc1c2c(ccc(=O)c1O)-c1c(cc(OC)c(OC)c1OC)CCC2NC(C)=O", "note": "(centres undefined)", "values": [{"measurement": "T/C", "setting": "[4]", "value": "130 % of control [3 of 4 alive]"}, {"measurement": "survivor count", "setting": "[4]", "value": "2 of 4"}, {"measurement": "survivor count", "setting": "dose: 600.0 mg/kg/injection, schedule: Q01DX001 (ip), vehicle: carboxymethylcellulose (CMC)", "value": "1 of 4 and 2 of 4"}]}
{"smiles": "CN1CCC=C(CN(c2ccccc2)c2ccccc2)C1", "values": [{"measurement": "survivor count", "setting": "dose: 200.0 mg/kg/injection, schedule: Q04DX003 (ip), vehicle: saline", "value": "1 of 6"}, {"measurement": "survivor count", "setting": "dose: 400.0 mg/kg/injection, schedule: Q04DX003 (ip), vehicle: saline", "value": "0 of 6"}]}
{"smiles": "CN(C)CCCn1c2c(c3ccccc31)CCCCCC2", "values": [{"measurement": "survivor count", "setting": "dose: 100.0 mg/kg/injection, schedule: Q01DX009 (ip), vehicle: saline", "value": "0 of 6"}]}
{"smiles": "Cc1ccc(OCCBr)cc1", "values": [{"measurement": "survivor count", "setting": "[1]", "value": "6 of 6"}]}
{"smiles": "OCC1OC(n2cnc3c(SCc4ccccc4)nc(NO)nc32)C(O)C1O", "note": "(centres undefined)", "values": [{"measurement": "T/C", "setting": "dose: 264.0 mg/kg/injection, schedule: Q01DX001 (ip), vehicle: saline with Tween-80", "value": "135 % of control"}, {"measurement": "T/C", "setting": "dose: 400.0 mg/kg/injection, schedule: Q01DX001 (ip), vehicle: saline with Tween-80, evaluated on day 20", "value": "139 % of control"}, {"measurement": "T/C", "setting": "dose: 400.0 mg/kg/injection, schedule: Q01DX001 (ip), vehicle: saline with Tween-80, evaluated on day 30", "value": "141 % of control"}, {"measurement": "T/C", "setting": "dose: 600.0 mg/kg/injection, schedule: Q01DX001 (ip), vehicle: saline with Tween-80, evaluated on day 20", "value": "148 % of control"}, {"measurement": "T/C", "setting": "dose: 600.0 mg/kg/injection, schedule: Q01DX001 (ip), vehicle: saline with Tween-80, evaluated on day 30", "value": "148 % of control"}]}
{"smiles": "O=C(CI)Nc1cc(C(F)(F)F)ccc1Cl", "values": [{"measurement": "survivor count", "setting": "[5]", "value": "2 of 6"}]}
{"smiles": "O=[N+]([O-])c1ccc2c(c1)OCCOCCOCCOCCO2", "values": [{"measurement": "survivor count", "setting": "dose: 400.0 mg/kg/injection, schedule: Q04DX002 (ip), vehicle: Klucel (hydroxypropylcellulose) (HPC)", "value": "1 of 3"}]}
{"smiles": "Cc1cc(C)c(S(=O)(=O)Cc2cc(Cl)cc(Cl)c2O)c(C)c1", "values": [{"measurement": "survivor count", "setting": "[2]", "value": "6 of 6"}]}
{"smiles": "C1CCN(c2c3c(nc4nnnn24)CCC3)CC1", "values": [{"measurement": "survivor count", "setting": "dose: 400.0 mg/kg/injection, schedule: Q01DX001 (ip), vehicle: other", "value": "0 of 6"}]}
{"smiles": "Cn1/c(=N/N=C(N)N)ccc2ccccc21", "values": [{"measurement": "survivor count", "setting": "dose: 420.0 mg/kg/injection, schedule: Q01DX Z (ip), vehicle: methylcellulose (MC)", "value": "3 of 6"}, {"measurement": "survivor count", "setting": "dose: 500.0 mg/kg/injection, schedule: Q01DX Z (oral), vehicle: methylcellulose (MC)", "value": "5 of 7"}, {"measurement": "survivor count", "setting": "dose: 600.0 mg/kg/injection, schedule: Q01DX Z (ip), vehicle: methylcellulose (MC)", "value": "0 of 6"}, {"measurement": "survivor count", "setting": "dose: 625.0 mg/kg/injection, schedule: Q01DX Z (oral), vehicle: methylcellulose (MC)", "value": "3 of 7"}]}
{"smiles": "c1ccc([P+](c2ccccc2)(c2ccccc2)C2CN=NC2)cc1", "values": [{"measurement": "survivor count", "setting": "dose: 75.0 mg/kg/injection, schedule: Q01DX001 (ip), vehicle: saline", "value": "0 of 6"}, {"measurement": "survivor count", "setting": "dose: 150.0 mg/kg/injection, schedule: Q01DX001 (ip), vehicle: saline", "value": "1 of 6"}, {"measurement": "survivor count", "setting": "dose: 300.0 mg/kg/injection, schedule: Q01DX001 (ip), vehicle: saline", "value": "0 of 6"}]}
{"smiles": "O=[N+]([O-])c1ccccc1N=C=S", "values": [{"measurement": "survivor count", "setting": "dose: 50.0 mg/kg/injection, schedule: Q01DX009 (ip), vehicle: gum acacia", "value": "3 of 3"}, {"measurement": "survivor count", "setting": "dose: 100.0 mg/kg/injection, schedule: Q01DX009 (ip), vehicle: gum acacia", "value": "3 of 3"}, {"measurement": "survivor count", "setting": "dose: 200.0 mg/kg/injection, schedule: Q04DX002 (ip), vehicle: gum acacia", "value": "3 of 3"}, {"measurement": "survivor count", "setting": "dose: 400.0 mg/kg/injection, schedule: Q04DX002 (ip), vehicle: gum acacia", "value": "0 of 3"}]}
{"smiles": "O=C1OC2CC3CC1C2C3", "note": "(centres undefined)", "values": [{"measurement": "survivor count", "setting": "dose: 75.0 mg/kg/injection, schedule: Q01DX001 (ip), vehicle: acetone", "value": "1 of 6"}, {"measurement": "survivor count", "setting": "dose: 80.0 mg/kg/injection, schedule: Q01DX001 (ip), vehicle: other", "value": "0 of 6"}, {"measurement": "survivor count", "setting": "dose: 100.0 mg/kg/injection, schedule: Q01DX001 (ip), vehicle: carboxymethylcellulose (CMC)", "value": "1 of 4"}, {"measurement": "survivor count", "setting": "[5]", "value": "0 of 6"}, {"measurement": "survivor count", "setting": "dose: 150.0 mg/kg/injection, schedule: Q01DX001 (ip), vehicle: acetone", "value": "0 of 6 and 3 of 6"}, {"measurement": "survivor count", "setting": "dose: 200.0 mg/kg/injection, schedule: Q01DX001 (ip), vehicle: carboxymethylcellulose (CMC)", "value": "0 of 4 (2×)"}, {"measurement": "survivor count", "setting": "dose: 300.0 mg/kg/injection, schedule: Q01DX001 (ip), vehicle: acetone", "value": "0 of 6 (2×)"}, {"measurement": "survivor count", "setting": "[4]", "value": "0 of 4 (2×)"}]}
